Assay results: the supplement of paper PMC10849652
This is one part of the list.

Chains of the proteins cited; added tags and fusions are not shown. Lines headed by an entry give the natural chain unless they say otherwise; changes in a name come on top.
UniProt Q9Y303: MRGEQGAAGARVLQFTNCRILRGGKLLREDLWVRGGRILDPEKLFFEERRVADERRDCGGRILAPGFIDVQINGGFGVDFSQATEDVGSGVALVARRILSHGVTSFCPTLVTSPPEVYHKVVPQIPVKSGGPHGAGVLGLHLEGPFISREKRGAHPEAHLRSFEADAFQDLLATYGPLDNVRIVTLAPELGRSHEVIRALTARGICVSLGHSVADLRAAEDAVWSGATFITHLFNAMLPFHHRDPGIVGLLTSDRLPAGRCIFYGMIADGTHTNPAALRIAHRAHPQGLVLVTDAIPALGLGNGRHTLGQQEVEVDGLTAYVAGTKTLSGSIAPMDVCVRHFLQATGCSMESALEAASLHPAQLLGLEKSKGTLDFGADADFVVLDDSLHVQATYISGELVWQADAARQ
UniProt Q9UJX5, whole entry, looked up: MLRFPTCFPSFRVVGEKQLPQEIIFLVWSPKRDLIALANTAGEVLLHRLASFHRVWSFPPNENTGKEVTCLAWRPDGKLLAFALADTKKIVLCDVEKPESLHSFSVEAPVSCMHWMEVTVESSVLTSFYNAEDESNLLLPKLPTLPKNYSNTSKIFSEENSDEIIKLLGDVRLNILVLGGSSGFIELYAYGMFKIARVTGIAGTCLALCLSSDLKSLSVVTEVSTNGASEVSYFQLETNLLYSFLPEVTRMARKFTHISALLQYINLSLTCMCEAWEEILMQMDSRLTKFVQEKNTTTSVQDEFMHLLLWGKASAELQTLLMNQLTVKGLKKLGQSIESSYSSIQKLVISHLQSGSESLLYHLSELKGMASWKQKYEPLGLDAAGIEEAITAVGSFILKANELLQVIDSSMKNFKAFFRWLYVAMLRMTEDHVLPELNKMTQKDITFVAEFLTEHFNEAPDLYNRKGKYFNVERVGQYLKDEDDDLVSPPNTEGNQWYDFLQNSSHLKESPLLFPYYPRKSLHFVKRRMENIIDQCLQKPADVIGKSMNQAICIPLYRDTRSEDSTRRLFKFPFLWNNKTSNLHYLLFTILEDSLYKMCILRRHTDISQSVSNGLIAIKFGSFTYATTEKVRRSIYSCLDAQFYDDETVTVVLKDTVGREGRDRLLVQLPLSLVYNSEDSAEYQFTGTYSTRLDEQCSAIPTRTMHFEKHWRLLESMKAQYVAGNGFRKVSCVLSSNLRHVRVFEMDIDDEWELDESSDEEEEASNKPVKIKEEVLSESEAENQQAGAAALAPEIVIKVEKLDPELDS
UniProt Q6NS38: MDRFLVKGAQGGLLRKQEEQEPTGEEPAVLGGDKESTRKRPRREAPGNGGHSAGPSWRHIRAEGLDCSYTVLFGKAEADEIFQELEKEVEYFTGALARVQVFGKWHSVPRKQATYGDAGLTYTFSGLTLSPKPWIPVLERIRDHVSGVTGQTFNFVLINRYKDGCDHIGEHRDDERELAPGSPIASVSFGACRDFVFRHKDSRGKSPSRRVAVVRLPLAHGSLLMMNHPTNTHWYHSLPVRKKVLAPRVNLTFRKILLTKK
UniProt P39687: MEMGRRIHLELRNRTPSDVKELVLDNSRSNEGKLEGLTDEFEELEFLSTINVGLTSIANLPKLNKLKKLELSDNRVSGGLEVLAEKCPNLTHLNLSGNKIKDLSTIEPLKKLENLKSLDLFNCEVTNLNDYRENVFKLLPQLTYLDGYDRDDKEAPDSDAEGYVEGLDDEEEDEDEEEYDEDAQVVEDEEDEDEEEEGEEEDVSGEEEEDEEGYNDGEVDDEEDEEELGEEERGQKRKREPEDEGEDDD
UniProt Q9UJX3, whole entry, looked up: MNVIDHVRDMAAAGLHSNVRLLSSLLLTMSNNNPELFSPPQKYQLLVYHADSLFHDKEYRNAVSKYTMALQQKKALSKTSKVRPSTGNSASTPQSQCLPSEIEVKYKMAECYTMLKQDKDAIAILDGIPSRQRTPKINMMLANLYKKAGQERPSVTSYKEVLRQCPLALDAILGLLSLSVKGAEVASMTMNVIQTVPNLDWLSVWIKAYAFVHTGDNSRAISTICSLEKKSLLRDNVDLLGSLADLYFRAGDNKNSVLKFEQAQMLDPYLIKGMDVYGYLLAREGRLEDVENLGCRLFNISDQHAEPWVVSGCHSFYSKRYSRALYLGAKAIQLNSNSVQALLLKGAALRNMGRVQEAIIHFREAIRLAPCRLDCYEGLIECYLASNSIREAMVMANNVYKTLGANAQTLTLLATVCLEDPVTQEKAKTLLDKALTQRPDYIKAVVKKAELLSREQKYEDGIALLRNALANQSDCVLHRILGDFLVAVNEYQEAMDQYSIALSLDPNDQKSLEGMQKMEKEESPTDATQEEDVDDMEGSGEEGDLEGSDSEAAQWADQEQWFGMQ
UniProt Q01433: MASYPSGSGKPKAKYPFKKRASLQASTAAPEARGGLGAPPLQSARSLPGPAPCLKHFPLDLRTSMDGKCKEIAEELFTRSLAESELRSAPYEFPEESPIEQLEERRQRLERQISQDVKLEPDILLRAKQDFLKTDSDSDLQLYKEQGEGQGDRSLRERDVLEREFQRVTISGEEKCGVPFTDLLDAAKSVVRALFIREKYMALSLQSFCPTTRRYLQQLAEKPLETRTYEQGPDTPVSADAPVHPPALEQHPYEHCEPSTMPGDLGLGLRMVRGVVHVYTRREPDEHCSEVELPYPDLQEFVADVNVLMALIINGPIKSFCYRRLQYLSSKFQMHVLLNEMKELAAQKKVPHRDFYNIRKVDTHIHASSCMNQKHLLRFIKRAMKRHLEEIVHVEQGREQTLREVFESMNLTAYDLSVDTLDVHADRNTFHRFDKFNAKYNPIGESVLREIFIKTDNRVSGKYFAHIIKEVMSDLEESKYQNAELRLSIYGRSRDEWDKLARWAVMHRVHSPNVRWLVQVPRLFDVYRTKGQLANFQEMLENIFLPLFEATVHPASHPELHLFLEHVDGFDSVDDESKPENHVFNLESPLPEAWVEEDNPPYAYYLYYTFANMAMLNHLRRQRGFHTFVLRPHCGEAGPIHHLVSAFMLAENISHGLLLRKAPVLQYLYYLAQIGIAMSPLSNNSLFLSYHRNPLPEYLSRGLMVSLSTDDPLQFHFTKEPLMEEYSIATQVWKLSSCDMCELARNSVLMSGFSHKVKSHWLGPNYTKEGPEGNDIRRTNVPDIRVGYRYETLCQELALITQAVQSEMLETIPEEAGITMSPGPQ
UniProt O94973, whole entry, looked up: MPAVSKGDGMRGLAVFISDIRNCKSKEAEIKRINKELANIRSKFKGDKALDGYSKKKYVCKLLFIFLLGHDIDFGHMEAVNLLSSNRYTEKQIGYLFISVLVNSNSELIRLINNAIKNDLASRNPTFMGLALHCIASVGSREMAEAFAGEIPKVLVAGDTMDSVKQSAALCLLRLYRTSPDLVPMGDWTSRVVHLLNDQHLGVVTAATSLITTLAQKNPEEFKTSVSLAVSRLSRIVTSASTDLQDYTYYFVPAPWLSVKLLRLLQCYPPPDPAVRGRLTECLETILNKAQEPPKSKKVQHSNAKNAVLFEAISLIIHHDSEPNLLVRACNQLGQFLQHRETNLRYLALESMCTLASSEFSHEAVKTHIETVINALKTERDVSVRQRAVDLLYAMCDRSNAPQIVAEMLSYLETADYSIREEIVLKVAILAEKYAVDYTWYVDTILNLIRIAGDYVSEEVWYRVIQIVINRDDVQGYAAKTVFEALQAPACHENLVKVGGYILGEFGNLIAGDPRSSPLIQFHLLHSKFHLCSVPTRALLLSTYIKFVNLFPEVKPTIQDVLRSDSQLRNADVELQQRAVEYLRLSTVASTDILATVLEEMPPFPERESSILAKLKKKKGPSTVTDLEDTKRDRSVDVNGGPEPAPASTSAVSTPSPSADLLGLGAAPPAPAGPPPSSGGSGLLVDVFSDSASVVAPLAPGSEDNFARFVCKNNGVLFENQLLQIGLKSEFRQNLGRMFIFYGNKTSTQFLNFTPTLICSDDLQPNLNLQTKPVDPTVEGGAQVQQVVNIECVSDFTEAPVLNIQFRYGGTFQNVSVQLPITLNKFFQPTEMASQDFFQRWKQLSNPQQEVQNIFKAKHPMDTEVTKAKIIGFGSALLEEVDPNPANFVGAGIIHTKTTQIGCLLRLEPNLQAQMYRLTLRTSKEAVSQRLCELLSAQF
UniProt P54886: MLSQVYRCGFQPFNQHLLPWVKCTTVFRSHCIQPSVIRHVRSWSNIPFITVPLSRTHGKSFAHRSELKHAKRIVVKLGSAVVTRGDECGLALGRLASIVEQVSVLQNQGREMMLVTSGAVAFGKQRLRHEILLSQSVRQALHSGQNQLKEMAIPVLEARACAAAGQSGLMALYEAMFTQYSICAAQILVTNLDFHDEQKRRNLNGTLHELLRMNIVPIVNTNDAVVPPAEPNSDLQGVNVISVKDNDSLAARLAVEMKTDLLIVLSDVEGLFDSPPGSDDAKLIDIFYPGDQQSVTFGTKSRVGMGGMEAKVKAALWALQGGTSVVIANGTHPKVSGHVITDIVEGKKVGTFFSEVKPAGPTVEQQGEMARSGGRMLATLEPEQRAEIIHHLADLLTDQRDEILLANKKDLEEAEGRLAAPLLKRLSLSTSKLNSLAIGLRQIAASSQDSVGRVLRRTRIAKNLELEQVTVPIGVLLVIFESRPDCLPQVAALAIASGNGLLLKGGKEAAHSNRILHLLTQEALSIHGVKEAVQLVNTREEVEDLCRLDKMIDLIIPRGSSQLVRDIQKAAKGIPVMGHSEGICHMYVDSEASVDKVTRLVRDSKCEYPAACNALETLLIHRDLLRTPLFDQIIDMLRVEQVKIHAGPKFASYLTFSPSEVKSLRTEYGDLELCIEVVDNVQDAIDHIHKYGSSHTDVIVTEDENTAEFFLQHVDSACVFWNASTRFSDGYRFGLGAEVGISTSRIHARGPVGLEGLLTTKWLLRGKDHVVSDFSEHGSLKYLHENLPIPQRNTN
UniProt P61966: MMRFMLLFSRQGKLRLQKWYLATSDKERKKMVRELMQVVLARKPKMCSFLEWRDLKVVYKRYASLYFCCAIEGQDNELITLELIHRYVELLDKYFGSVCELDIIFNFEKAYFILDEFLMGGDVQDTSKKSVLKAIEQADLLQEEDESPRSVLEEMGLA
UniProt Q9Y2T2: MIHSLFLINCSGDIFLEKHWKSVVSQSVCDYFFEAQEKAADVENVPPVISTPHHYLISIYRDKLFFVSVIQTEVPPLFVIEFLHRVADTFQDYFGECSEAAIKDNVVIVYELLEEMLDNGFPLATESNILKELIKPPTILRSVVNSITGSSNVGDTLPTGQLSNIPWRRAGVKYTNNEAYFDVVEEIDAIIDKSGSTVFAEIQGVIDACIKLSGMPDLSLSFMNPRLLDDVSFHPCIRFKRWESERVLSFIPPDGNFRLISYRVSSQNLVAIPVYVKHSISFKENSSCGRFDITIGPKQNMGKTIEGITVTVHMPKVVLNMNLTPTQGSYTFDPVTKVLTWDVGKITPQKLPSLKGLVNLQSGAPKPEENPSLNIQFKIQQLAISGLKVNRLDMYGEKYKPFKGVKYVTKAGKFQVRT
UniProt O43747: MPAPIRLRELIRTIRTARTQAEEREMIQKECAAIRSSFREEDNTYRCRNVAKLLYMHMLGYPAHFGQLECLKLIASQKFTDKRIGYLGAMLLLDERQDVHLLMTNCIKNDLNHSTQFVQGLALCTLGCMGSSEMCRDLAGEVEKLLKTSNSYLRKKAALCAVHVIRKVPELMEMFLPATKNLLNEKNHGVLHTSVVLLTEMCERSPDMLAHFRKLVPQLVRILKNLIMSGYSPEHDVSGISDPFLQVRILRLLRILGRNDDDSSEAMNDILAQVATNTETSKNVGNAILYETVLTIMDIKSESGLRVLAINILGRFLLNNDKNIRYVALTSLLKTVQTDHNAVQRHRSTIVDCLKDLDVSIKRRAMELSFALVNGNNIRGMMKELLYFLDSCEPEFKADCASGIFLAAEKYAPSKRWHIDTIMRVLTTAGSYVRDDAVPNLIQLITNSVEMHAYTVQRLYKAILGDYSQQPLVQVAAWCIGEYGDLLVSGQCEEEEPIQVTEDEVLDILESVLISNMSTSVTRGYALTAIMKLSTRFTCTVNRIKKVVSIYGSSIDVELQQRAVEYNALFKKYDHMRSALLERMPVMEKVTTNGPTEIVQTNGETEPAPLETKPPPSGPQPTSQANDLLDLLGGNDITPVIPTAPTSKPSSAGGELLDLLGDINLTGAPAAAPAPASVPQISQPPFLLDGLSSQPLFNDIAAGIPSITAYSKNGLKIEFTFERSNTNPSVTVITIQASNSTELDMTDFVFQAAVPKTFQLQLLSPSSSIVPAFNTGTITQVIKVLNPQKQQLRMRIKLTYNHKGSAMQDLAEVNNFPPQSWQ
UniProt P13716: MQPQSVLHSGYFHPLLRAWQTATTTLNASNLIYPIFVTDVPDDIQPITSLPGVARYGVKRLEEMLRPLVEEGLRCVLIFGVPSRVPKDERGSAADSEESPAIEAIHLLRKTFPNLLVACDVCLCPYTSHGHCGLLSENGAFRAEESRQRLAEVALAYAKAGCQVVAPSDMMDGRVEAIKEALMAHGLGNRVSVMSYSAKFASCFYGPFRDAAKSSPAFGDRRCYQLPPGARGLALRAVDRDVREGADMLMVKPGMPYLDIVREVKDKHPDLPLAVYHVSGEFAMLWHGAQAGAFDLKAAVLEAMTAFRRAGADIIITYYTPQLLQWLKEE

Experiments:
Experiment in all cases: log2 fold change, soluble protein after heating vs DMSO (PISA); higher = thermal stabilisation; K562 lysate, 10 uM; active = over 0.2 and 3.5 SD of the protein, either way, in both replicates (recomputed)
alvocidib = compound: CN1CC[C@H](c2c(O)cc(O)c3c(=O)cc(-c4ccccc4Cl)oc23)[C@H](O)C1 [alvocidib]
In short: (§1)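 Values give the log-two fold change in thermal stability against solvent controls, from duplicates. Crude K562 extract at 1 mg/mL protein, made by dounce homogenisation in PBS pH 7.4 with 1 mM MgCl2, was treated with 10 μM compound for 30 min. After 3 min heating across 48°C-58°C, aliquots were pooled, adjusted to 0.5% NP-40 at 4°C and centrifuged at 21,000xg for 90 min. The supernatant was measured by TMTpro 16plex LC-MS/MS with channel sums equalised.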

Tubastatin A = compound: CN1CCc2c(c3ccccc3n2Cc2ccc(C(=O)NO)cc2)C1 [Tubastatin A]
In short: as §1

[1] = compound: CNC(=O)C1=CC=CC=C1NC2=NC(=NC=C2Cl)NC3=C(C=C(C=C3)N4CCOCC4)OC
In short: as §1

defactinib = compound: CNC(=O)c1ccc(Nc2ncc(C(F)(F)F)c(NCc3nccnc3N(C)S(C)(=O)=O)n2)cc1 [defactinib]
In short: as §1

[2] = compound: CNc1nc(-c2ccc3c(N)n[nH]c3c2)cc(N2C[C@@H](C(=O)NC3CCCCC3)CC[C@H]2C)n1
In short: as §1

encorafenib = compound: COC(=O)N[C@@H](C)CNc1nccc(-c2cn(C(C)C)nc2-c2cc(Cl)cc(NS(C)(=O)=O)c2F)n1 [encorafenib]
In short: as §1

[3] = compound: COC(=O)[C@H](CCSC)NC(=O)C1=C(C=C(C=C1)NC[C@H](CS)N)C2=CC=CC=C2
In short: as §1

alisertib = compound: COc1cc(Nc2ncc3c(n2)-c2ccc(Cl)cc2C(c2c(F)cccc2OC)=NC3)ccc1C(=O)O [alisertib]
In short: as §1

[4] = compound: COc1cc2nc(-c3cc(F)ccc3O)nc(N[C@@H]3CNC[C@H]3C(C)(C)O)c2cc1OC
In short: as §1

gefitinib = compound: COc1cc2ncnc(Nc3ccc(F)c(Cl)c3)c2cc1OCCCN1CCOCC1 [gefitinib]
In short: as §1

lapatinib = compound: CS(=O)(=O)CCNCc1ccc(-c2ccc3ncnc(Nc4ccc(OCc5cccc(F)c5)c(Cl)c4)c3c2)o1 [lapatinib]
In short: as §1

pictilisib = compound: CS(=O)(=O)N1CCN(Cc2cc3nc(-c4cccc5[nH]ncc45)nc(N4CCOCC4)c3s2)CC1 [pictilisib]
In short: as §1

crizotinib = compound: C[C@@H](Oc1cc(-c2cnn(C3CCNCC3)c2)cnc1N)c1c(Cl)ccc(F)c1Cl [crizotinib]
In short: as §1

[5] = compound: C[C@H](C1=CC=C(C=C1)C(=O)NC2=C3C=CNC3=NC=C2)N
In short: as §1

duvelisib = compound: C[C@H](Nc1ncnc2nc[nH]c12)c1cc2cccc(Cl)c2c(=O)n1-c1ccccc1 [duvelisib]
In short: as §1

gandotinib = compound: Cc1cc(Nc2cc(CN3CCOCC3)c3nc(C)c(Cc4ccc(Cl)cc4F)n3n2)n[nH]1 [gandotinib]
In short: as §1

tozasertib = compound: Cc1cc(Nc2cc(N3CCN(C)CC3)nc(Sc3ccc(NC(=O)C4CC4)cc3)n2)n[nH]1 [tozasertib]
In short: as §1

doramapimod = compound: Cc1ccc(-n2nc(C(C)(C)C)cc2NC(=O)Nc2ccc(OCCN3CCOCC3)c3ccccc23)cc1 [doramapimod]
In short: as §1

bafetinib = compound: Cc1ccc(NC(=O)c2ccc(CN3CC[C@H](N(C)C)C3)c(C(F)(F)F)c2)cc1Nc1nccc(-c2cncnc2)n1 [bafetinib]
In short: as §1

[6] = compound: Cc1cccc(CC(=O)N2CCc3c2ccc(-c2cn(C)c4ncnc(N)c24)c3F)n1
In short: as §1

Measured: log2 fold change

AMDHD2 isoform 3 (UniProt Q9Y303)
inactive: alvocidib -0.016 | Tubastatin A 0 | [1] 0.018 | defactinib 0.014 | [2] 0.018 | encorafenib -0.028 | [3] 0.1 | alisertib 0.023 | [4] -0.013 | gefitinib 0.034 | lapatinib 0.014 | pictilisib -0.081 | crizotinib 0.025 | [5] 0.006 | duvelisib -0.043 | gandotinib 0.008 | tozasertib -0.013 | doramapimod 0.003 | bafetinib 0.093 | [6] 0.009

ANAPC4 isoform 3 (UniProt Q9UJX5)
inactive: alvocidib -0.004 | Tubastatin A -0.034 | [1] 0.044 | defactinib 0.023 | [2] 0.03 | encorafenib -0.017 | [3] -0.056 | alisertib -0.01 | [4] 0.012 | gefitinib 0.007 | lapatinib 0 | pictilisib -0.043 | crizotinib -0.047 | [5] -0.037 | duvelisib 0.021 | gandotinib 0.039 | tozasertib 0.019 | doramapimod 0.035 | bafetinib -0.038 | [6] 0.015

ANO10 (UniProt Q9NW15)
inactive: alvocidib 0.013 | Tubastatin A 0.022 | [1] -0.026 | defactinib 0.009 | [2] -0.024 | encorafenib 0.017 | [3] 0.024 | alisertib 0.002 | [4] -0.114 | gefitinib 0.008 | lapatinib -0.016 | pictilisib -0.01 | crizotinib -0.063 | [5] -0.007 | duvelisib 0.006 | gandotinib -0.046 | tozasertib -0.003 | doramapimod -0.006 | bafetinib 0.036 | [6] 0.032

ALKBH2 (UniProt Q6NS38)
inactive: alvocidib 0.061 | Tubastatin A 0.041 | [1] 0.01 | defactinib 0 | [2] 0.061 | encorafenib -0.014 | [3] 0.083 | alisertib 0.062 | [4] -0.115 | gefitinib -0.086 | lapatinib -0.04 | pictilisib -0.099 | crizotinib 0.045 | [5] -0.177 | duvelisib 0.098 | gandotinib 0.025 | tozasertib -0.09 | doramapimod -0.102 | bafetinib -0.021 | [6] 0.029

ANP32A (UniProt P39687)
inactive: alvocidib -0.039 | Tubastatin A 0.027 | [1] -0.006 | defactinib 0.016 | [2] -0.056 | encorafenib -0.024 | [3] -0.048 | alisertib 0.018 | [4] -0.014 | gefitinib -0.007 | lapatinib 0.068 | pictilisib -0.001 | crizotinib 0 | [5] -0.063 | duvelisib -0.003 | gandotinib 0.065 | tozasertib 0.014 | doramapimod 0.096 | bafetinib 0.126 | [6] 0

ANAPC2 (UniProt Q9UJX6)
inactive: alvocidib 0.001 | Tubastatin A -0.098 | [1] -0.001 | defactinib -0.009 | [2] -0.008 | encorafenib 0.038 | [3] 0.018 | alisertib 0.02 | [4] 0.001 | gefitinib 0.001 | lapatinib -0.031 | pictilisib -0.005 | crizotinib -0.047 | [5] -0.041 | duvelisib 0.013 | gandotinib -0.058 | tozasertib -0.019 | doramapimod 0.003 | bafetinib -0.044 | [6] 0.041

AMD1 (UniProt P17707)
inactive: alvocidib -0.039 | Tubastatin A -0.084 | [1] 0.071 | defactinib -0.003 | [2] 0.008 | encorafenib -0.08 | [3] -0.107 | alisertib 0.027 | [4] 0.261 | gefitinib 0.041 | lapatinib -0.125 | pictilisib 0.056 | crizotinib 0.035 | [5] -0.099 | duvelisib 0.12 | gandotinib 0.107 | tozasertib 0.05 | doramapimod 0.316 | bafetinib -0.07 | [6] 0.048

ANAPC7 (UniProt Q9UJX3)
inactive: alvocidib 0.011 | Tubastatin A -0.1 | [1] 0.036 | defactinib 0.014 | [2] -0.03 | encorafenib 0.026 | [3] 0.002 | alisertib -0.001 | [4] 0.005 | gefitinib 0.017 | lapatinib -0.017 | pictilisib 0.002 | crizotinib -0.029 | [5] -0.009 | duvelisib -0.018 | gandotinib -0.042 | tozasertib -0.019 | doramapimod 0.023 | bafetinib -0.036 | [6] 0.002

AMPD2 (UniProt Q01433)
inactive: alvocidib -0.037 | Tubastatin A 0.051 | [1] -0.004 | defactinib -0.02 | [2] -0.005 | encorafenib 0.002 | [3] 0.024 | alisertib -0.01 | [4] 0.005 | gefitinib -0.008 | lapatinib -0.004 | pictilisib -0.001 | crizotinib 0.027 | [5] -0.042 | duvelisib 0.009 | gandotinib 0.026 | tozasertib 0.005 | doramapimod 0 | bafetinib -0.014 | [6] 0.028

AP2A2 isoform 2 (UniProt O94973)
inactive: alvocidib -0.016 | Tubastatin A -0.047 | [1] -0.004 | defactinib -0.005 | [2] -0.025 | encorafenib 0.022 | [3] -0.017 | alisertib -0.039 | [4] 0.014 | gefitinib 0.011 | lapatinib 0.005 | pictilisib -0.036 | crizotinib -0.016 | [5] -0.056 | duvelisib -0.008 | gandotinib -0.005 | tozasertib -0.007 | doramapimod 0.051 | bafetinib 0.014 | [6] 0.005

ALDH18A1 (UniProt P54886)
inactive: alvocidib -0.005 | Tubastatin A -0.049 | [1] 0.005 | defactinib 0.006 | [2] -0.01 | encorafenib -0.009 | [3] 0.062 | alisertib 0.01 | [4] 0.017 | gefitinib 0.001 | lapatinib -0.052 | pictilisib -0.063 | crizotinib -0.034 | [5] 0.001 | duvelisib -0.017 | gandotinib -0.064 | tozasertib 0.002 | doramapimod 0.047 | bafetinib -0.006 | [6] 0.018

AP1S1 (UniProt P61966)
inactive: alvocidib 0.025 | Tubastatin A -0.04 | [1] -0.002 | defactinib 0.065 | [2] -0.053 | encorafenib 0.011 | [3] 0.016 | alisertib -0.001 | [4] -0.038 | gefitinib -0.032 | lapatinib 0.015 | pictilisib 0.022 | crizotinib 0.066 | [5] 0.002 | duvelisib 0.008 | gandotinib -0.037 | tozasertib 0.002 | doramapimod 0.019 | bafetinib 0.037 | [6] -0.021

ALDH9A1 isoform 3 (UniProt P49189)
inactive: alvocidib 0.014 | Tubastatin A -0.018 | [1] 0.029 | defactinib 0.012 | [2] 0 | encorafenib -0.036 | [3] 0.065 | alisertib -0.019 | [4] -0.003 | gefitinib -0.043 | lapatinib 0.027 | pictilisib 0.01 | crizotinib 0.036 | [5] 0.079 | duvelisib 0.017 | gandotinib -0.003 | tozasertib -0.018 | doramapimod -0.07 | bafetinib 0.012 | [6] -0.024

2 neighbouring records from above, for reference:
AP1S1 (UniProt P61966)
inactive: alvocidib 0.025 | Tubastatin A -0.04 | [1] -0.002 | defactinib 0.065 | [2] -0.053 | encorafenib 0.011 | [3] 0.016 | alisertib -0.001 | [4] -0.038 | gefitinib -0.032 | lapatinib 0.015 | pictilisib 0.022 | crizotinib 0.066 | [5] 0.002 | duvelisib 0.008 | gandotinib -0.037 | tozasertib 0.002 | doramapimod 0.019 | bafetinib 0.037 | [6] -0.021

ALDH9A1 isoform 3 (UniProt P49189)
inactive: alvocidib 0.014 | Tubastatin A -0.018 | [1] 0.029 | defactinib 0.012 | [2] 0 | encorafenib -0.036 | [3] 0.065 | alisertib -0.019 | [4] -0.003 | gefitinib -0.043 | lapatinib 0.027 | pictilisib 0.01 | crizotinib 0.036 | [5] 0.079 | duvelisib 0.017 | gandotinib -0.003 | tozasertib -0.018 | doramapimod -0.07 | bafetinib 0.012 | [6] -0.024

Next part

AP3M1 (UniProt Q9Y2T2)
inactive: alvocidib 0.001 | Tubastatin A -0.003 | [1] 0.042 | defactinib 0.046 | [2] 0.023 | encorafenib 0.025 | [3] -0.036 | alisertib -0.022 | [4] 0.006 | gefitinib 0.016 | lapatinib 0.002 | pictilisib 0.006 | crizotinib -0.02 | [5] -0.045 | duvelisib 0.021 | gandotinib 0.042 | tozasertib 0.017 | doramapimod 0.02 | bafetinib -0.041 | [6] 0.056

AP1G1 isoform 2 (UniProt O43747)
inactive: alvocidib -0.058 | Tubastatin A 0.012 | [1] 0.014 | defactinib 0.003 | [2] 0.002 | encorafenib 0.029 | [3] 0.005 | alisertib -0.003 | [4] 0.012 | gefitinib -0.005 | lapatinib -0.007 | pictilisib -0.022 | crizotinib -0.048 | [5] -0.088 | duvelisib -0.012 | gandotinib 0.053 | tozasertib -0.01 | doramapimod 0.016 | bafetinib -0.038 | [6] 0.034

ALAD (UniProt P13716)
inactive: alvocidib -0.028 | Tubastatin A -0.008 | [1] 0.011 | defactinib -0.01 | [2] 0.015 | encorafenib 0.007 | [3] -0.019 | alisertib -0.046 | [4] -0.013 | gefitinib 0.03 | lapatinib 0.013 | pictilisib -0.007 | crizotinib -0.001 | [5] 0.002 | duvelisib 0.023 | gandotinib 0.031 | tozasertib -0.002 | doramapimod -0.008 | bafetinib 0.038 | [6] -0.027
